Values from PubChem BioAssay AID1259308 (NCATS, 2017).
Test: 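Genes whose loss raises luciferase production in HEK293 cells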 (primary screen). Cell system: human HEK293 embryonic kidney cells stably expressing firefly luciferase (HEK-CMV-Luc2-Hygro). Reagent: single siRNA against human genes, 0.8 pmol siRNA per well. Timing: 72 h. Measured: 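Luciferase light (ONE-Glo) measured on one replicate plate set and viability (CellTiter-Glo) on the other, scaled to a negative control siRNA, with robust z-scores and luciferase per cell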. Direction: total luciferase, z-score and total luciferase, % of control: higher = more reporter protein produced; luciferase per cell, z-score: higher = more reporter output per viable cell; viable cells, % of control: higher = more viable cells. Active means: 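Active when the median/MAD z-score for overall luciferase is greater than 3; a gene was taken forward for validation with new siRNAs if at least two of its three siRNAs passed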. Meaning of the calls: active = raised luciferase; inactive = no rise.
This is an unselected part of about 59,000 reagents tested. In the full data, about 1,510 (2.6%) were called active. 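Calls use total luciferase alone and ignore viability, so some active siRNAs may act by altering cell number.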 Reagents against one gene are numbered here.

no.	gene symbol	siRNA no.	total luciferase, z-score	total luciferase, % of control	luciferase per cell, z-score	viable cells, % of control	Outcome
1	TTYH3	1	0	81.9	0.518	79.8	inactive
2	TTYH3	2	1.23	106	0.826	95.6	inactive
3	TTYH3	3	0.28	87.5	-0.525	112	inactive
4	ZNF232	1	-0.715	67.7	-0.261	81	inactive
5	ZNF232	2	0.195	85.8	-0.2	101	inactive
6	ZNF232	3	1.8	118	1.55	87.5	inactive
7	OR1L8	1	-0.13	79.3	-0.378	97.9	inactive
8	OR1L8	2	1.06	103	0.895	90.9	inactive
9	OR1L8	3	0.223	86.3	-0.383	107	inactive
10	RMP24	1	-0.437	73.2	0.943	63.8	inactive
11	RMP24	2	-0.194	78	-0.439	97.9	inactive
12	RMP24	3	-1.64	49.3	0.268	51.3	inactive
13	SCAF4	1	0.403	89.9	-0.0109	101	inactive
14	SCAF4	2	-1.14	59.2	-1.24	91.7	inactive
15	SCAF4	3	0.262	87.1	-0.202	103	inactive
16	IP6K3	1	0.356	89	1.19	72.6	inactive
17	IP6K3	2	-1.5	52.1	-1.69	91	inactive
18	IP6K3	3	-1.23	57.5	-0.92	81.8	inactive
19	PCNA	1	0.903	99.8	0.992	85.9	inactive
20	PCNA	2	2.22	126	1.73	89.2	inactive
21	PCNA	3	-1.44	53.2	-1.58	90	inactive
22	NPTX1	1	-0.234	77.2	-0.616	102	inactive
23	NPTX1	2	0.0701	83.3	-0.166	97.2	inactive
24	NPTX1	3	0.408	90	0.296	93	inactive
25	PRDM13	1	-0.758	66.8	-0.328	81.4	inactive
26	PRDM13	2	-0.36	74.7	-0.532	96.1	inactive
27	PRDM13	3	1.21	106	1.39	82.1	inactive
28	KLHL3	1	0.759	97	0.997	83.4	inactive
29	KLHL3	2	1.91	120	0.991	103	inactive
30	KLHL3	3	0.76	97	0.448	96.3	inactive

Entries listed so far whose gene name starts with Z or z (3):
gene symbol	siRNA no.	total luciferase, z-score	total luciferase, % of control	luciferase per cell, z-score	viable cells, % of control	Outcome
ZNF232	1	-0.715	67.7	-0.261	81	inactive
ZNF232	2	0.195	85.8	-0.2	101	inactive
ZNF232	3	1.8	118	1.55	87.5	inactive

Continued.
no.	gene symbol	siRNA no.	total luciferase, z-score	total luciferase, % of control	luciferase per cell, z-score	viable cells, % of control	Outcome
31	ANO4	1	-0.0688	80.5	-0.594	105	inactive
32	ANO4	2	1.99	121	1.75	85.6	inactive
33	ANO4	3	-0.509	71.8	0.315	73.8	inactive
34	DOCK8-AS1	1	0.163	85.1	1.01	73	inactive
35	DOCK8-AS1	2	2.22	126	2.96	64.7	inactive
36	DOCK8-AS1	3	-0.0594	80.7	-0.676	108	inactive
37	IRF6	1	0.776	97.3	0.791	88.3	inactive
38	IRF6	2	-0.323	75.5	-0.196	88.8	inactive
39	IRF6	3	0.859	99	2.11	63.5	inactive
40	MRGPRX3	1	3.03	142	1.84	97.9	active
41	MRGPRX3	2	0.355	88.9	0.273	92.5	inactive
42	MRGPRX3	3	-0.261	76.7	-0.555	99.2	inactive
43	CDC14B	1	0.242	86.7	-0.266	104	inactive
44	CDC14B	2	-0.219	77.5	0.141	83.5	inactive
45	CDC14B	3	-0.0458	81	-0.634	107	inactive
46	USP48	1	-1.32	55.6	-0.435	69.7	inactive
47	USP48	2	-0.435	73.2	-0.202	86.3	inactive
48	USP48	3	0.557	93	2.17	58.7	inactive
49	OCIAD2	1	0.0774	83.4	0.619	79.2	inactive
50	OCIAD2	2	-0.0647	80.6	0.123	87.2	inactive
51	OCIAD2	3	-0.569	70.6	-0.102	81	inactive
52	ZMIZ2	1	-0.375	74.4	-1.04	109	inactive
53	ZMIZ2	2	-0.416	73.6	-0.956	106	inactive
54	ZMIZ2	3	0.0103	82.1	-0.214	97	inactive
55	ITPRID1	1	0.0489	82.9	-0.272	99.5	inactive
56	ITPRID1	2	0.934	100	1.39	77.8	inactive
57	ITPRID1	3	1.39	110	0.871	97.3	inactive
